Results are given in words; binding and its absence hold for the method and conditions named. Binding calls can cover weak binding; strength is not graded here. Blank lines part the entries; values can stand above or below the binder they belong to.
Tests used:
[1] = target: HLA DRB5 01:01; assay: competitive HLA binding assay (legend: +++ strong binding)
[2] = target: HLA DRB5 01:01; assay: competition binding assay on HLA DRB5 01:01
[3] = target: HLA DRB5 01:01; assay: competitive HLA binding assay (legend: + weak binding)
[4] = target: HLA DRB5 01:01; assay: competitive HLA binding assay (legend: ++ moderate binding)

B1: FABP7 peptide #28 (Aa 121-135 of SEQ ID NO: 1) (peptide)
peptide: NSPFFLVFFSSPHTS
binding [1]: binds | binding [2]: binds

B2: FABP7 peptide #30 (Aa 131-145 of SEQ ID NO: 1) (peptide)
peptide: SPHTSHLLPSSSLLL
binding [3]: binds

B3: FABP7 peptide #2 (Aa 07-21 of SEQ ID NO: 1) (peptide)
peptide: ATWKLTNSQNFDEYM
binding [3]: binds

B4: FABP7 peptide #29 (Aa 126-140 of SEQ ID NO: 1) (peptide)
peptide: LVFFSSPHTSHLLPS
binding [3]: binds

B7: PROK2 peptide #14 (Aa 93-107 of SEQ ID NO: 2) (peptide)
peptide: KKEVPFFGRRMHHTC
binding [3]: binds

B8: PROK2 peptide #21 (Aa 115-129 of SEQ ID NO: 2) (peptide)
peptide: CLRTSFNRFICLAQK
binding [3]: binds

B10: FABP7 peptide #34 (Aa 152-166 of SEQ ID NO: 1) (peptide)
peptide: SFFNNTSLARFFNYM
binding [3]: binds

B11: FABP7 peptide #4 (Aa 17-31 of SEQ ID NO: 1) (peptide)
peptide: FDEYMKALGVGFATR
binding [4]: binds

B13: FABP7 peptide #24 (Aa 118-132 of SEQ ID NO: 6) (peptide)
peptide: LTFGDVVAVRHYEKA
binding [3]: binds

B14: PROK2 peptide #9 (Aa 68-82 of SEQ ID NO: 2) (peptide)
peptide: CHPLTRKNNFGNGRQ
binding [3]: binds

B15: PROK2 peptide #20 (Aa 110-124 of SEQ ID NO: 2) (peptide)
peptide: LPGLACLRTSFNRFI
binding [4]: binds

B19: FABP7 peptide #10 (Aa 47-61 of SEQ ID NO: 1) (peptide)
peptide: GDKVVIRTLSTFKNT
binding [3]: binds

B21: FABP7 peptide #21 (Aa 102-116 of SEQ ID NO: 1) (peptide)
peptide: ETNFVREIKDGKMVM
binding [3]: binds

Now from value to binder:

binding [3]: binds
B5: PROK2 peptide #4 (Aa 43-57 of SEQ ID NO: 2) (peptide)
peptide: GMCCAVSIWVKSIRI

binding [3]: binds
B6: FABP7 peptide #6 (Aa 27-41 of SEQ ID NO: 1) (peptide)
peptide: GFATRQVGNVTKPTV

binding [3]: binds
B9: FABP7 peptide #1 (Aa 02-16 of SEQ ID NO: 1) (peptide)
peptide: VEAFCATWKLTNSQN

binding [4]: binds
B12: FABP7 peptide #33 (Aa 146-160 of SEQ ID NO: 1) (peptide)
peptide: PFFLLPSFFNNTSLA

binding [1]: binds | binding [2]: binds
B16: PROK2 peptide #6 (Aa 53-67 of SEQ ID NO: 2) (peptide)
peptide: KSIRICTPMGKLGDS

binding [3]: binds
B17: PROK2 peptide #5 (Aa 48-62 of SEQ ID NO: 2) (peptide)
peptide: VSIWVKSIRICTPMG

binding [3]: binds
B18: PROK2 peptide #10 (Aa 73-87 of SEQ ID NO: 2) (peptide)
peptide: RKNNFGNGRQERRKR

binding [3]: binds
B20: FABP7 peptide #26 (Aa 111-125 of SEQ ID NO: 1) (peptide)
peptide: DGKMVMVSNDNSPFF
